## Primary screen of a compound library

Chains of the proteins cited; added tags and fusions are not shown. Residues count along the entry.
UniProt Q8IDJ8, 1-583: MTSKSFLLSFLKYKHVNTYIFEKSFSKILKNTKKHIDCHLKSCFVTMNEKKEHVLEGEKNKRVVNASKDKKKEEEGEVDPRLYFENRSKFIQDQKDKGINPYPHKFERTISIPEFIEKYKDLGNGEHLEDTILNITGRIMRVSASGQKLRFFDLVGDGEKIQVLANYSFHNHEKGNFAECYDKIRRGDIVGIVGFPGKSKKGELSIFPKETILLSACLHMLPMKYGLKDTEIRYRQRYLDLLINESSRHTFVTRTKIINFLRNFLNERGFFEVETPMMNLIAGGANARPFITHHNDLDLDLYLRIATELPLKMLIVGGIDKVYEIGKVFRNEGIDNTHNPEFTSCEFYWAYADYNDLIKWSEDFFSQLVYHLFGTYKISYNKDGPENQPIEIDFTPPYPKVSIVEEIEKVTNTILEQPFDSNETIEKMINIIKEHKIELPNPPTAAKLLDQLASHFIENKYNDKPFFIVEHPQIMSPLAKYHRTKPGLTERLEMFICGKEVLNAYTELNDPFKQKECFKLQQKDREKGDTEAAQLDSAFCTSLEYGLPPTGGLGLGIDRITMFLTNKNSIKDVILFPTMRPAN
UniProt A4I591, 1-473: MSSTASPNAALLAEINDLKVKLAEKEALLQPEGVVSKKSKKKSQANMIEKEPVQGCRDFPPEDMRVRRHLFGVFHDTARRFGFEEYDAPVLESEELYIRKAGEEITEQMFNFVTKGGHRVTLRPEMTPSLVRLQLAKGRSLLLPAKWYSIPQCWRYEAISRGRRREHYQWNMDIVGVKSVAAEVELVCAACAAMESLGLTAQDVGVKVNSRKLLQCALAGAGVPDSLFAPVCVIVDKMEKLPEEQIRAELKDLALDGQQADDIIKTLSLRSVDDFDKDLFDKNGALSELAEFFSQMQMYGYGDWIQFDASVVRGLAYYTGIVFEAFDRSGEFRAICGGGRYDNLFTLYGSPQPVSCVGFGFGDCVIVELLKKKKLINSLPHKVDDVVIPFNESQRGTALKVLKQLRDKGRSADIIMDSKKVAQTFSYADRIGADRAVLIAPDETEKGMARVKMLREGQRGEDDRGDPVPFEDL

Source: ChEMBL document CHEMBL3988442, “University of Dundee, Small-Polar-MMV Screening Library” (2021).

A: 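Whole-parasite assay of Trypanosoma brucei over 72 hours; the read-out is not stated. Concentration: 30 µM. The record gives no direction; compounds that gave an IC50 in retests scored well above the rest, so higher reads as stronger inhibition. Values scatter widely below zero; nearly all retest evidence comes from the higher of the two concentrations used. Of about 64,000 compounds tested this way, about 940 (1.5%) reached 50% or more in at least one test.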
B: 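Enzyme assay of the cytosolic lysyl-tRNA synthetase in 384-well plates, read by luminescence. Target: Lysine-tRNA ligase, Plasmodium falciparum 3D7 (UniProt Q8IDJ8). Concentration: 30 µM. Direction is inferred from only a few compounds that gave an IC50; most scored high, so higher reads as stronger inhibition. Of about 69,000 compounds tested this way, about 49 (0.071%) reached 50% or more in at least one test.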
C: 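Enzyme assay of histidyl-tRNA synthetase; the read-out is not stated. Target: Histidine-tRNA ligase, Leishmania infantum (UniProt A4I591). Tested at 30 µM. The record gives no direction; compounds that gave an IC50 in retests scored well above the rest, so higher reads as stronger inhibition. The assay is labelled LdHisRS but filed under L. infantum. Size under these conditions: about 69,000 compounds, about 410 of them at 50% or above in at least one test.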
D: 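Assay of Toxoplasma gondii numbers, read through their beta-galactosidase reporter with a colour substrate. Tested at 10 µM. The record gives no direction; the compounds picked for IC50 retests had high values, so higher reads as fewer parasites. About 67,000 compounds were tested under these conditions; 0.38% (about 260) showed 50% or more at least once.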

Values are the deposited “Percent Effect”, in %.
The record does not define 0% and 100%; most values in the screen are far below 50% and negative numbers occur (in some assays of this library far below -100).
This is an unselected part of the compounds tested.
A dash means the value is not listed here; it may have been measured.

{"structure": "CCN(CC)S(=O)(=O)N1CCCC1c1cccc(Nc2ncc(C)s2)n1", "stereo": "stereo not shown", "A": 15.56, "B": 0.5166, "C": 15.86, "D": 32.03}
{"structure": "CC(C)n1cnnc1CN(C)C(=O)c1ccccc1N1CCOCC1", "A": 0.3734, "B": -0.9066, "C": 11.5, "D": 2.358}
{"structure": "Cc1nc(CN2CCC3(CC2)CC(=O)N(C)c2ccccc23)cs1.O=C(O)C(F)(F)F", "A": -62.9, "D": -0.05319}
{"structure": "Cn1cc(CN2CC[C@H]3C[C@H](c4nc(C5CC5)cs4)O[C@@H]3C2)cn1", "B": 5.143, "C": 19.81}
{"structure": "[H][C@@]12CCC(=O)N(CCCSC)[C@]1([H])CCN(Cc1ncc[nH]1)C2", "A": -3.966, "D": -8.916}
{"structure": "Cc1cnc(N2CCOC3(CCCN(CC(=O)N(C)C)C3)C2)nc1", "stereo": "stereo not shown", "B": -3.231, "C": 11.11}
{"structure": "O=C(NC[C@]12COC[C@H]1CN(Cc1cccnc1)C2)C1CCC1", "B": 4.226, "C": 15.84}
{"structure": "CC(C)CC(=O)N1CC(=O)c2sc(NCCc3ccccc3)nc2C1", "A": -15.4, "B": 4.408, "C": 11.43, "D": -14.27}
{"structure": "COCCN1CCC2(CC1)CCN(Cc1ccccn1)CC2.O=C(O)C(F)(F)F.O=C(O)C(F)(F)F", "A": -12.12, "D": -9.578}
{"structure": "CCC(C)(C)NC(=O)Cn1cc(C(N)=O)c(-c2ccccc2)n1", "A": -41.11, "B": 0.09789, "C": 13.7, "D": 13.18}
{"structure": "CC(C)c1ccc(OCCC(=O)N(C)C)cc1", "A": -78.58, "B": -7.696, "C": -6.667, "D": 0.2257}
{"structure": "Cc1nnsc1C(=O)NCc1nn(C)c2c1COCC2", "A": -1.197, "B": 3.646, "C": 5.195, "D": -1.404}
{"structure": "c1cncc(N2CCC3(CCCN(c4ccncc4)C3)CC2)c1", "B": -1.533, "C": 15.28}
{"structure": "COc1cc(OC)cc(-c2noc(C(N)CCSC)n2)c1", "stereo": "stereo not shown", "A": -28.1, "B": 1.373, "C": 20.88, "D": 16.82}
{"structure": "CCN(CC)CC1CCN(Cc2ccn(C)c(=O)c2)CC1", "B": -1.755, "C": 15.38, "D": 0.9015}
{"structure": "O=C(CCc1ccccn1)N1CCc2cc(Cl)cc(Cl)c2C1", "A": -70.49, "B": -11.69, "C": -2.83, "D": 10.66}
{"structure": "COCCNC(=O)CN1CCCC1c1c(C)nn(C)c1Cl", "stereo": "stereo not shown", "A": 6.282, "B": -1.515, "C": 3.509, "D": 19.37}
{"structure": "CCn1cc(CNc2ccc(Br)c(OC)c2)cn1", "A": -16.49, "B": 1.992, "C": 16.88, "D": -0.7088}
{"structure": "CS(=O)(=O)N1CCOC2(CCCC2)C1", "A": -7.947, "B": 3.639, "C": 22.22, "D": 5.241}
{"structure": "CC(=O)c1c(F)cccc1N1CCC(Cc2cccnc2)CC1", "A": 17.81, "B": 2.55, "C": 26.67, "D": 17.32}
{"structure": "CN(Cc1ccsc1)C(=O)CN1CCOC(Cn2cccn2)C1", "stereo": "stereo not shown", "A": -10.75, "B": -8.739, "C": -3.125, "D": -27.59}
{"structure": "COc1ccc(C)cc1NC(=O)Nc1cnc(O)nc1O", "A": 9.537, "B": 4.045, "C": 20.65, "D": 4.987}

Some entries from above, unchanged:

structure	A	B	C	D
Cc1cnc(N2CCOC3(CCCN(CC(=O)N(C)C)C3)C2)nc1 (stereo not shown)	-	-3.231	11.11	-
COc1cc(OC)cc(-c2noc(C(N)CCSC)n2)c1 (stereo not shown)	-28.1	1.373	20.88	16.82
CCN(CC)S(=O)(=O)N1CCCC1c1cccc(Nc2ncc(C)s2)n1 (stereo not shown)	15.56	0.5166	15.86	32.03